For one molecule, binding results are on record in patent publication US20190040138A1.

By UniProt entry, the sequences of proteins in these tests, tags left out. Residues count along the entry.
UniProt Q15116, residues 25-288: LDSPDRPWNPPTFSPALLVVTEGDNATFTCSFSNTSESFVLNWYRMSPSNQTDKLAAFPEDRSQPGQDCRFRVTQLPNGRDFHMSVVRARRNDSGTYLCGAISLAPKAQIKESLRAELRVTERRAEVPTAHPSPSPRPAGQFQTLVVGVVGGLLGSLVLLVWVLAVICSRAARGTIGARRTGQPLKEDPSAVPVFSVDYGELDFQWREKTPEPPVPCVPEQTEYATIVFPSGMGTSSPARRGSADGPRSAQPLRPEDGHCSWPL

In the assay the target is PD-1 antigen stably expressed on the surface of BB007 cells (UniProt Q15116). Briefly: flow cytometry on BB007 cells.

No constants are given. Whether binding was seen depends on the method and setting. Some binding calls cover weakened binding; strength is not graded here.

B1: humanized antibody 18A10 H3L3 (antibody, V domains shown)
VH: EVQLVQSGGGLVQPGGSLKLSCAASGFTFSSYGMSWVRQAPGKGLDWVATISGGGRDTYYPDSVKGRFTISRDNSKNTLYLQMNSLRAEDTAVYYCARQKGEAWFAYWGQGTLVTVSS
VL: DIVLTQSPASLAVSPGQRATITCRASESVDNYGISFMNWYQQKPGQPPKLLIYAASNKATGVPARFSGSGSGTDFTLNINPMEANDTAVYFCQQSKEVPWTFGGGTKLEIK
Regarding B1, the binding entry is listed as “binds”.
